Where “and” joins values, the source holds several entries; their conditions need not be identical. Identical values can stand only once. The list shows a part of the results. For some assays here: The exact form of the protein is not confirmed.
Tests used:
Assay in all cases: protein microarray (ProtoArray v5.0), streptavidin-Alexa Fluor 647
Conditions in all cases: 3'-biotin; 20 mM Tris (pH 7.5), 5 mM MgCl2, 100 mM KCl, 0.1% Tween-20, A/T-rich and random oligonucleotide blockers; temperature not stated; high values mean tight binding
CABP7 (human) = tested on: CABP7 (human)
CACHD1 (human) = tested on: CACHD1 (human)
CACNG1 (human) = tested on: CACNG1 (human)
CALB1 (human) = tested on: CALB1 (human)
CALCOCO1 (human) = tested on: CALCOCO1 (human)
CALM2 (human) = tested on: CALM2 (human)
CALM3 = CALM3 (UniProt P0DP25)
CAMK1D (human) = tested on: CAMK1D (human)
CAMK4 (human) = tested on: CAMK4 (human)
CANT1 (human) = tested on: CANT1 (human)
CANX (human) = tested on: CANX (human)
CAP2 (human) = tested on: CAP2 (human)
CAPN1 (human) = tested on: CAPN1 (human)
CAPNS2 (human) = tested on: CAPNS2 (human)
CAPS (human) = tested on: CAPS (human)
CAPZA2 (human) = tested on: CAPZA2 (human)
CARTPT (human) = tested on: CARTPT (human)
CASC2 (human) = tested on: CASC2 (human)
CASP4 (human) = tested on: CASP4 (human)
CAT (human) = tested on: CAT (human)

“GGGAGGCTGAGGCAGG [G4-1 biotinylated (PQS2)]” gave a binding signal (CABP7 (human)) of -0.328 z-score, a binding signal (CACHD1 (human)) of -0.325 z-score and a binding signal (CACNG1 (human)) of -0.33 z-score. It also gave a binding signal (CALB1 (human)) of -0.334 z-score, a binding signal (CALCOCO1 (human)) of -0.339 z-score and a binding signal (CALM2 (human)) of -0.333 z-score. The binding signal (CALM3) was -0.347 z-score, the binding signal (CAMK1D (human)) was -0.344 z-score and -0.358 z-score and the binding signal (CAMK4 (human)) was -0.355 z-score. It also gave a binding signal (CANT1 (human)) of -0.338 z-score, a binding signal (CANX (human)) of -0.313 z-score and a binding signal (CAP2 (human)) of -0.345 z-score. The binding signal (CAPN1 (human)) was -0.307 z-score, the binding signal (CAPNS2 (human)) was -0.345 z-score and the binding signal (CAPS (human)) was -0.354 z-score and -0.376 z-score. For the same sequence, the binding signal (CAPZA2 (human)) was -0.356 z-score, the binding signal (CARTPT (human)) was -0.26 z-score and the binding signal (CASC2 (human)) was -0.279 z-score. The binding signal (CASP4 (human)) was -0.335 z-score and the binding signal (CAT (human)) was -0.348 z-score.
